Experimental data reported in publication PMC3667834.
No constants are given. Whether binding was seen depends on the method and setting.

Molecular target: T1, OsMKK6 (Oryza sativa (indica rice, cultivar Pusa Basmati 1)) (UniProt Q5QN75)
T1 sequence: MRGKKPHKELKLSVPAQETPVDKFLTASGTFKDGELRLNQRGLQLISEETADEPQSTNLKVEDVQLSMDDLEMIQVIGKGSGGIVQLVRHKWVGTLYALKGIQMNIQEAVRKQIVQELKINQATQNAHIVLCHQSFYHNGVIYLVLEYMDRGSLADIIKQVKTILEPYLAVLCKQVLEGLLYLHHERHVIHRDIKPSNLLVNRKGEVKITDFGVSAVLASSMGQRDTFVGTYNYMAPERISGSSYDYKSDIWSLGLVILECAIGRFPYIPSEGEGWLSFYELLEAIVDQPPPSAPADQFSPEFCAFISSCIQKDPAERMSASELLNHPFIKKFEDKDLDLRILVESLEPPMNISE
Test: two-hybrid; Matchmaker system, yeast AH109; MAPKK fused to GAL4 DNA-binding domain (pGBKT7) as bait, MAPK fused to GAL4 activation domain (pGADT7) as prey; co-transformants selected on SD/-Leu/-Trp, interaction read as growth on SD/-Ade/-His/-Leu/-Trp

B1: OsMPK3 (enzyme, UniProt A2XFC8 1-369)
chain: MDGAPVAEFRPTMTHGGRYLLYDIFGNKFEVTNKYQPPIMPIGRGAYGIVCSVMNFETREMVAIKKIANAFNNDMDAKRTLREIKLLRHLDHENIIGIRDVIPPPIPQAFNDVYIATELMDTDLHHIIRSNQELSEEHCQYFLYQILRGLKYIHSANVIHRDLKPSNLLLNANCDLKICDFGLARPSSESDMMTEYVVTRWYRAPELLLNSTDYSAAIDVWSVGCIFMELINRQPLFPGRDHMHQMRLITEVIGTPTDDELGFIRNEDARKYMRHLPQYPRRTFASMFPRVQPAALDLIERMLTFNPLQRITVEEALDHPYLERLHDIADEPICLEPFSFDFEQKALNEDQMKQLIFNEAIEMNPNIRY
binding: no binding
